± gives the standard deviation of the averaged measurements. The entries are a selection whose mix differs from that of the whole data set.
Compound: Nc1ncnc2c1ncn2[C@@H]1O[C@H](COP(=O)(O)OP(=O)(O)OP(=O)(O)O)[C@@H](O)[C@H]1O [adenosine triphosphate]
Test: NP40-soluble protein abundance relative to vehicle (solubility fold change) (ratio); higher = more soluble protein in presence of ATP
Details: concentration: 6mM
In short: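 Crude Jurkat lysate, prepared by Dounce homogenisation, was exposed to eight concentrations from 0.1 to 10 mM for 10 min at room temperature and then 3 min at 37 °C. Solubilisation used 0.8% NP40 with benzonase for 60 min at 4 °C, followed by ultracentrifugation and TMT labelling of the supernatant for LC-MS/MS. After vsn normalisation of intensities, each value is the fold change against the detergent-processed vehicle within each replicate, across three independent experiments.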

Protein sequences, listed by entry. Tags and fused reporters are not part of them. Lines headed by an entry give the natural chain unless they say otherwise; changes in a name come on top.
UniProt Q9NX62: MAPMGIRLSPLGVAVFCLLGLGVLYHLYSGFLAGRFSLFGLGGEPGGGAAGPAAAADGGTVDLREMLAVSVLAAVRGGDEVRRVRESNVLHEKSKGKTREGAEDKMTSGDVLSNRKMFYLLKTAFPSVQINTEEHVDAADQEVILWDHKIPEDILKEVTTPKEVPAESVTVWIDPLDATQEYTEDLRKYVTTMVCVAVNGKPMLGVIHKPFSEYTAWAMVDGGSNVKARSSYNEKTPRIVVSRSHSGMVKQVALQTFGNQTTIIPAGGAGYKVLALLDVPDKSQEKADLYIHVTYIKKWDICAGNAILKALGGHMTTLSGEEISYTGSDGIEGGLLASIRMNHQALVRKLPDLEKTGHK
UniProt Q9NZC9: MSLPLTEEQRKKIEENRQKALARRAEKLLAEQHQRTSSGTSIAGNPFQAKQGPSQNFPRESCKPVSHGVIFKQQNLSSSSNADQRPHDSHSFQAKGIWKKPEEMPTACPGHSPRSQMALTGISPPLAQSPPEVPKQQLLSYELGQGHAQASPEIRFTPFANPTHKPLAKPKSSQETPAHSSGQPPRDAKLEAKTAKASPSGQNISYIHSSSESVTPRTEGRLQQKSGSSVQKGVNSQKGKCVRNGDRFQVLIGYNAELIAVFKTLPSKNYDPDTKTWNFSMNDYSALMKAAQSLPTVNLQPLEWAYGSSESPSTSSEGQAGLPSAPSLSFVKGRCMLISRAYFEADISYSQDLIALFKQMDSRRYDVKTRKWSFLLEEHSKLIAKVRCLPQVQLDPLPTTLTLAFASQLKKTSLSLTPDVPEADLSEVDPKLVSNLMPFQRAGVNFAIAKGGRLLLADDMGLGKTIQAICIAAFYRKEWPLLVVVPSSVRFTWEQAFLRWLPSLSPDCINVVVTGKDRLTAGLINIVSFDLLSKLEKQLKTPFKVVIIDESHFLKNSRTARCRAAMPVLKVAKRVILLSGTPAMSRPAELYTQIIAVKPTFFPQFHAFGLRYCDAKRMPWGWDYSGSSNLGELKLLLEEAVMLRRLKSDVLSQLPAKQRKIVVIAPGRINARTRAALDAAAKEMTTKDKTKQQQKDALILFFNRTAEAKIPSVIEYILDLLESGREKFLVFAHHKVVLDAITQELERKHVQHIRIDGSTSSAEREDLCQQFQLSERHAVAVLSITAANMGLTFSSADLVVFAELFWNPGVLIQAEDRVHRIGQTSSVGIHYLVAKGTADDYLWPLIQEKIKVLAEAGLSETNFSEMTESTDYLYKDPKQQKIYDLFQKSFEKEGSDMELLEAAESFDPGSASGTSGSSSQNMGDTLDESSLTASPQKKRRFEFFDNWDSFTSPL
UniProt Q9P0P0: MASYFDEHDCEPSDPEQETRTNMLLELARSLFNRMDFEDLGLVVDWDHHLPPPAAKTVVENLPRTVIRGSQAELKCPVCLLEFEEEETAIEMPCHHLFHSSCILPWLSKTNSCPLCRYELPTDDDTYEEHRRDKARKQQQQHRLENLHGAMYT
UniProt Q9NWV4: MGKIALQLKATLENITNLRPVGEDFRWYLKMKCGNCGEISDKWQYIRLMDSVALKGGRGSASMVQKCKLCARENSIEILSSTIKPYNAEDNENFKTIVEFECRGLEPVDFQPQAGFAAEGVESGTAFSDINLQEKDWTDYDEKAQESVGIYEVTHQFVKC
UniProt Q9NR45: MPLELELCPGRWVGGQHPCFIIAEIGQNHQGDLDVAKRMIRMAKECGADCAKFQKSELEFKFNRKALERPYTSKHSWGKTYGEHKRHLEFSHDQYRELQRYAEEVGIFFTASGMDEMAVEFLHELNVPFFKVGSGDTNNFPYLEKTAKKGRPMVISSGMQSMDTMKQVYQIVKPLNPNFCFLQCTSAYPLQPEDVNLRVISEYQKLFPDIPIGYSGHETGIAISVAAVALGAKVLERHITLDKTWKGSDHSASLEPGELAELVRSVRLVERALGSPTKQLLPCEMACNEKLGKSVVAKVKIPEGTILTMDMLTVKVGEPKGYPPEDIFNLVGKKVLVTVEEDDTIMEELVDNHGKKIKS
UniProt Q9P086: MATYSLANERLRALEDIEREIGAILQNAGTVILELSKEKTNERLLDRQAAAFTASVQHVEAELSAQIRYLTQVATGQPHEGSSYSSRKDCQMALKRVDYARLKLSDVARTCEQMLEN
UniProt Q9NSA3: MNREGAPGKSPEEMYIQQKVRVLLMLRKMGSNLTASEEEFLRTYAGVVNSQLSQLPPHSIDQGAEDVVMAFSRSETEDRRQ
UniProt Q9NUQ3: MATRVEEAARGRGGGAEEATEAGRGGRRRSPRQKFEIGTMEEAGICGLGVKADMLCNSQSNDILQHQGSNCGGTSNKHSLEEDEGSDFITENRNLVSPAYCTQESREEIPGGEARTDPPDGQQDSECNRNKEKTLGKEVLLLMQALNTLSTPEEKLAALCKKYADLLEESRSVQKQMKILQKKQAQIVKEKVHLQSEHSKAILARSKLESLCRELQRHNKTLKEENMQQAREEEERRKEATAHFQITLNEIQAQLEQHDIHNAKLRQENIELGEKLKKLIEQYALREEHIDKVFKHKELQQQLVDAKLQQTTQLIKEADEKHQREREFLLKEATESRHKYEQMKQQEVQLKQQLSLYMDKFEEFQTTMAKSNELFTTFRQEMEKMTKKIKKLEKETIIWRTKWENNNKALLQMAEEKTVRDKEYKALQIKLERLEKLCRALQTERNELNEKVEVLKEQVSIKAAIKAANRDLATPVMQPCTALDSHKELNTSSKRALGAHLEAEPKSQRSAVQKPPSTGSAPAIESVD
UniProt Q9NR50: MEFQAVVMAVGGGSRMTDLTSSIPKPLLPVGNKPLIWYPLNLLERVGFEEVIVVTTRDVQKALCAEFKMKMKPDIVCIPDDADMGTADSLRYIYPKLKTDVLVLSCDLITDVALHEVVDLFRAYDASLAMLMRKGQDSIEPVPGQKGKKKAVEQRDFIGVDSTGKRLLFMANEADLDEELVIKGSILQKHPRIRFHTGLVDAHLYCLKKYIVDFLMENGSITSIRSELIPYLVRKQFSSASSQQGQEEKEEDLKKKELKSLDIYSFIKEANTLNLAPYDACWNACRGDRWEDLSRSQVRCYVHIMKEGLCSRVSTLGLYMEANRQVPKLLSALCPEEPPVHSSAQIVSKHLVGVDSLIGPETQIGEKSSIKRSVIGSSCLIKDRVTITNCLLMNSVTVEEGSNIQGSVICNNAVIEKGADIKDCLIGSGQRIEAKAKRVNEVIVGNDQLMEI
UniProt Q9NW13: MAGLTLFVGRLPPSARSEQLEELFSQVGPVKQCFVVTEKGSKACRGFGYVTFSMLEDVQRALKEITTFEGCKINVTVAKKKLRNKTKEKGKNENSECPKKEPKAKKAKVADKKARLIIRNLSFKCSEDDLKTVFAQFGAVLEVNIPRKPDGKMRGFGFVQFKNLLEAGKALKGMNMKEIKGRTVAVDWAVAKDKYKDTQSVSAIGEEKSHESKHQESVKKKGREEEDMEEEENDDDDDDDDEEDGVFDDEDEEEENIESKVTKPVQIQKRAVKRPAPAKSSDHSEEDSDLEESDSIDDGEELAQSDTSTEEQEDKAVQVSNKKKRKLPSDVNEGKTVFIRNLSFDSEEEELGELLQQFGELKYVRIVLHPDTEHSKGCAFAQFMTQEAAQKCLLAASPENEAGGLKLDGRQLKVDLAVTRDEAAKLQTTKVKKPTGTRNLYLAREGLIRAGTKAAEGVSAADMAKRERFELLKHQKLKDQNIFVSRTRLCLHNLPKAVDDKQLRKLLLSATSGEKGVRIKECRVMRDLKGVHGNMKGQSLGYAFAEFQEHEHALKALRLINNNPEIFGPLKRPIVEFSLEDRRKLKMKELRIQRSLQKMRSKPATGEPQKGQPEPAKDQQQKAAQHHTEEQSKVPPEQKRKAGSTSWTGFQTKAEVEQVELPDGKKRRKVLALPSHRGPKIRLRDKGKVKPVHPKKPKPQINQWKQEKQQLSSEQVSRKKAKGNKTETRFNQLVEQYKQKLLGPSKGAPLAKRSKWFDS
UniProt Q9NQP4, whole entry: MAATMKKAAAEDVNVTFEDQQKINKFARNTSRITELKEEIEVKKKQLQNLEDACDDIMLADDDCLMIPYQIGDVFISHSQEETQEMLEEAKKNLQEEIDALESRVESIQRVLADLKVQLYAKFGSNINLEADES
UniProt Q9NS93: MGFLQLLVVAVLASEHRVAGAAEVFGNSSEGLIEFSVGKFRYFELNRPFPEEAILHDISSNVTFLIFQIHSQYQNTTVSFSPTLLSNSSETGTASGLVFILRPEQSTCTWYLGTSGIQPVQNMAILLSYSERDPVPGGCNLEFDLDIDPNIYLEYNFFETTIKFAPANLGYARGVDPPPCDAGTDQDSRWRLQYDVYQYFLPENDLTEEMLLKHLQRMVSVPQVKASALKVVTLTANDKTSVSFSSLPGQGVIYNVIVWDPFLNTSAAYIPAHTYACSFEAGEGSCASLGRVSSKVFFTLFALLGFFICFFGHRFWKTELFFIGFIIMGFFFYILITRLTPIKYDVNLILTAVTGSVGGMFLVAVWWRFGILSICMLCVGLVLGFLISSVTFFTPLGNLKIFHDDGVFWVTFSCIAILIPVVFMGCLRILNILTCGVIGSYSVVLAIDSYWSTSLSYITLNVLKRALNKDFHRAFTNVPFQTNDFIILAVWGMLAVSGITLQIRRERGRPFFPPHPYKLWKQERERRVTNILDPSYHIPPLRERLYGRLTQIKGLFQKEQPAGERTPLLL
UniProt Q9NUP1: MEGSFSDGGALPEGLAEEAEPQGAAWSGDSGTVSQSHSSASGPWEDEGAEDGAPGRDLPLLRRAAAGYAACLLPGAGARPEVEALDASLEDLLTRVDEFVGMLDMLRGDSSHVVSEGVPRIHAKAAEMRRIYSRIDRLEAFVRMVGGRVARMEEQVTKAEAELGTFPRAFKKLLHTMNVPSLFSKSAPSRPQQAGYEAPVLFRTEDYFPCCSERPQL
UniProt Q9NW08: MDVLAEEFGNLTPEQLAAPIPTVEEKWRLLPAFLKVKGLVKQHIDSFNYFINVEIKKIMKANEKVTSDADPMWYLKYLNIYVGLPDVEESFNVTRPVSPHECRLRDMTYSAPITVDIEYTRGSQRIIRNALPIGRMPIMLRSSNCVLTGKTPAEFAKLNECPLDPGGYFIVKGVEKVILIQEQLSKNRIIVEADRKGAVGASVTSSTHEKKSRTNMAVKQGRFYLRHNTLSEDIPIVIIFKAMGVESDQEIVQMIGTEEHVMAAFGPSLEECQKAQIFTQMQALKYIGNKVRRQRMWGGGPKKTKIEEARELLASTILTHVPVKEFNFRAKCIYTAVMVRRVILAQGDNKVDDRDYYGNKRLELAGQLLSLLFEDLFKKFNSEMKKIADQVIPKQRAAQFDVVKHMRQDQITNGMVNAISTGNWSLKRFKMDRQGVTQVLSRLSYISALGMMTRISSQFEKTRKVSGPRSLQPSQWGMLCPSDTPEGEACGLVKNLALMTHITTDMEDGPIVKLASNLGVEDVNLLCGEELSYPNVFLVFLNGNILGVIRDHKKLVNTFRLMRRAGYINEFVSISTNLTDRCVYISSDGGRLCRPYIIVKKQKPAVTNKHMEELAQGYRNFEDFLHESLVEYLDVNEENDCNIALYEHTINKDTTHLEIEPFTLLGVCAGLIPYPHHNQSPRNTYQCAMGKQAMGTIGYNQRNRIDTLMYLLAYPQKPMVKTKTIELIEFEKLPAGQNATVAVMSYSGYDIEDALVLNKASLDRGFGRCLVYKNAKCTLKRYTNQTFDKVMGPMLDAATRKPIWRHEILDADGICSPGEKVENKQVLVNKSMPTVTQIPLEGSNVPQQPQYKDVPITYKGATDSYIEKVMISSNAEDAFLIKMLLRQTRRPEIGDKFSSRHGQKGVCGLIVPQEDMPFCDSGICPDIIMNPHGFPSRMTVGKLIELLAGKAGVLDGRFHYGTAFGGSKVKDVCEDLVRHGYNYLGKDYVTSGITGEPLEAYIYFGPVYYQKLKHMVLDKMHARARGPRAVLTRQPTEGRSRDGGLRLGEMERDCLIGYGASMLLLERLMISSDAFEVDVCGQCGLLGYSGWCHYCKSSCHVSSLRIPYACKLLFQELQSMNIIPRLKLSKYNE
UniProt Q9NRB3: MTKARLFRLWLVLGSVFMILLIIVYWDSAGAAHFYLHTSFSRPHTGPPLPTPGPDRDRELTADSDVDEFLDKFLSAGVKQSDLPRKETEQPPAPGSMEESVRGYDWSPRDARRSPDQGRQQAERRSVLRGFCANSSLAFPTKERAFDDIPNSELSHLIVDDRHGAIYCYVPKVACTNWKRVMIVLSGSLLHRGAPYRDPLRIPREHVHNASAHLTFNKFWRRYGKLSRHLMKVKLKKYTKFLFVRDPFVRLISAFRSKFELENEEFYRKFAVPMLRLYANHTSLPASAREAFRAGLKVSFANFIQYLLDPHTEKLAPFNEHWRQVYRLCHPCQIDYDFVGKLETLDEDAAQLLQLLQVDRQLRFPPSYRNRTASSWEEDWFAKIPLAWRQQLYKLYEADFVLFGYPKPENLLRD

IMPAD1 (UniProt Q9NX62) and UniProt Q9P0K8 and related entries are within error of each other in NP40-soluble protein abundance: 0.992 ± 0.011 for the first, 0.911 ± 0.12 for the second.

First: SMARCAL1 (UniProt Q9NZC9)
Second: PAK1IP1 (UniProt Q9NWT1)
The NP40-soluble protein abundance of the first is lower: 1.04 ± 0.04 for the first, 1.31 ± 0.045 for the second.

RNF181 (UniProt Q9P0P0) and UniProt Q9NR19 and related entries are within error of each other in NP40-soluble protein abundance: 0.982 ± 0.069 for the first, 0.901 ± 0.067 for the second.

UniProt Q9NWV4 and NANS (UniProt Q9NR45) are within error of each other in NP40-soluble protein abundance: 0.97 ± 0.025 for the first, 0.974 ± 0.064 for the second.

KIF15 (UniProt Q9NS87) and MED11 (UniProt Q9P086) are within error of each other in NP40-soluble protein abundance: 1 ± 0.039 for the first, 1.09 ± 0.3 for the second.

CTNNBIP1 (UniProt Q9NSA3) and TBC1D22B (UniProt Q9NU19) are within error of each other in NP40-soluble protein abundance: 0.989 ± 0.17 for the first, 1.02 ± 0.046 for the second.

UniProt Q9NUQ3 and HOMER3 (UniProt Q9NSC5) are within error of each other in NP40-soluble protein abundance: 0.987 ± 0.01 for the first, 1.09 ± 0.11 for the second.

EIF2B3 (UniProt Q9NR50) and NSMCE4A (UniProt Q9NXX6) are within error of each other in NP40-soluble protein abundance: 0.958 ± 0.031 for the first, 0.973 ± 0.04 for the second.

Going from RBM28 (UniProt Q9NW13) to KIF13B (UniProt Q9NQT8), the NP40-soluble protein abundance falls from 1.23 ± 0.03 to 0.999 ± 0.024.

PFDN4 (UniProt Q9NQP4) and UniProt Q9NUB1 and related entries are within error of each other in NP40-soluble protein abundance: 1.04 ± 0.18 for the first, 0.94 ± 0.1 for the second.

First: MTPAP (UniProt Q9NVV4)
Second: TM7SF3 (UniProt Q9NS93)
The NP40-soluble protein abundance of the first is higher: 1.52 ± 0.041 for the first, 0.966 ± 0.054 for the second.

PANK4 (UniProt Q9NVE7) and PAG1 (UniProt Q9NWQ8) are within error of each other in NP40-soluble protein abundance: 0.928 ± 0.12 for the first, 1.04 ± 0.18 for the second.

UniProt Q9NUP1 and STARD7 (UniProt Q9NQZ5) are within error of each other in NP40-soluble protein abundance: 0.892 ± 0.12 for the first, 0.945 ± 0.086 for the second.

UniProt Q9NVM4 and related entries and UniProt Q9NW08 and related entries are within error of each other in NP40-soluble protein abundance: 0.973 ± 0.099 for the first, 0.975 ± 0.03 for the second.

With CHST12 (UniProt Q9NRB3) the NP40-soluble protein abundance was 0.954 ± 0.095.

— the supplement of paper PMC6411743
